Laboratory results from article PMC3792889.

Protein sequences, listed by entry. Tags and fused reporters are not part of them. Lines headed by an entry give the natural chain unless they say otherwise; changes in a name come on top.
UniProt P42859: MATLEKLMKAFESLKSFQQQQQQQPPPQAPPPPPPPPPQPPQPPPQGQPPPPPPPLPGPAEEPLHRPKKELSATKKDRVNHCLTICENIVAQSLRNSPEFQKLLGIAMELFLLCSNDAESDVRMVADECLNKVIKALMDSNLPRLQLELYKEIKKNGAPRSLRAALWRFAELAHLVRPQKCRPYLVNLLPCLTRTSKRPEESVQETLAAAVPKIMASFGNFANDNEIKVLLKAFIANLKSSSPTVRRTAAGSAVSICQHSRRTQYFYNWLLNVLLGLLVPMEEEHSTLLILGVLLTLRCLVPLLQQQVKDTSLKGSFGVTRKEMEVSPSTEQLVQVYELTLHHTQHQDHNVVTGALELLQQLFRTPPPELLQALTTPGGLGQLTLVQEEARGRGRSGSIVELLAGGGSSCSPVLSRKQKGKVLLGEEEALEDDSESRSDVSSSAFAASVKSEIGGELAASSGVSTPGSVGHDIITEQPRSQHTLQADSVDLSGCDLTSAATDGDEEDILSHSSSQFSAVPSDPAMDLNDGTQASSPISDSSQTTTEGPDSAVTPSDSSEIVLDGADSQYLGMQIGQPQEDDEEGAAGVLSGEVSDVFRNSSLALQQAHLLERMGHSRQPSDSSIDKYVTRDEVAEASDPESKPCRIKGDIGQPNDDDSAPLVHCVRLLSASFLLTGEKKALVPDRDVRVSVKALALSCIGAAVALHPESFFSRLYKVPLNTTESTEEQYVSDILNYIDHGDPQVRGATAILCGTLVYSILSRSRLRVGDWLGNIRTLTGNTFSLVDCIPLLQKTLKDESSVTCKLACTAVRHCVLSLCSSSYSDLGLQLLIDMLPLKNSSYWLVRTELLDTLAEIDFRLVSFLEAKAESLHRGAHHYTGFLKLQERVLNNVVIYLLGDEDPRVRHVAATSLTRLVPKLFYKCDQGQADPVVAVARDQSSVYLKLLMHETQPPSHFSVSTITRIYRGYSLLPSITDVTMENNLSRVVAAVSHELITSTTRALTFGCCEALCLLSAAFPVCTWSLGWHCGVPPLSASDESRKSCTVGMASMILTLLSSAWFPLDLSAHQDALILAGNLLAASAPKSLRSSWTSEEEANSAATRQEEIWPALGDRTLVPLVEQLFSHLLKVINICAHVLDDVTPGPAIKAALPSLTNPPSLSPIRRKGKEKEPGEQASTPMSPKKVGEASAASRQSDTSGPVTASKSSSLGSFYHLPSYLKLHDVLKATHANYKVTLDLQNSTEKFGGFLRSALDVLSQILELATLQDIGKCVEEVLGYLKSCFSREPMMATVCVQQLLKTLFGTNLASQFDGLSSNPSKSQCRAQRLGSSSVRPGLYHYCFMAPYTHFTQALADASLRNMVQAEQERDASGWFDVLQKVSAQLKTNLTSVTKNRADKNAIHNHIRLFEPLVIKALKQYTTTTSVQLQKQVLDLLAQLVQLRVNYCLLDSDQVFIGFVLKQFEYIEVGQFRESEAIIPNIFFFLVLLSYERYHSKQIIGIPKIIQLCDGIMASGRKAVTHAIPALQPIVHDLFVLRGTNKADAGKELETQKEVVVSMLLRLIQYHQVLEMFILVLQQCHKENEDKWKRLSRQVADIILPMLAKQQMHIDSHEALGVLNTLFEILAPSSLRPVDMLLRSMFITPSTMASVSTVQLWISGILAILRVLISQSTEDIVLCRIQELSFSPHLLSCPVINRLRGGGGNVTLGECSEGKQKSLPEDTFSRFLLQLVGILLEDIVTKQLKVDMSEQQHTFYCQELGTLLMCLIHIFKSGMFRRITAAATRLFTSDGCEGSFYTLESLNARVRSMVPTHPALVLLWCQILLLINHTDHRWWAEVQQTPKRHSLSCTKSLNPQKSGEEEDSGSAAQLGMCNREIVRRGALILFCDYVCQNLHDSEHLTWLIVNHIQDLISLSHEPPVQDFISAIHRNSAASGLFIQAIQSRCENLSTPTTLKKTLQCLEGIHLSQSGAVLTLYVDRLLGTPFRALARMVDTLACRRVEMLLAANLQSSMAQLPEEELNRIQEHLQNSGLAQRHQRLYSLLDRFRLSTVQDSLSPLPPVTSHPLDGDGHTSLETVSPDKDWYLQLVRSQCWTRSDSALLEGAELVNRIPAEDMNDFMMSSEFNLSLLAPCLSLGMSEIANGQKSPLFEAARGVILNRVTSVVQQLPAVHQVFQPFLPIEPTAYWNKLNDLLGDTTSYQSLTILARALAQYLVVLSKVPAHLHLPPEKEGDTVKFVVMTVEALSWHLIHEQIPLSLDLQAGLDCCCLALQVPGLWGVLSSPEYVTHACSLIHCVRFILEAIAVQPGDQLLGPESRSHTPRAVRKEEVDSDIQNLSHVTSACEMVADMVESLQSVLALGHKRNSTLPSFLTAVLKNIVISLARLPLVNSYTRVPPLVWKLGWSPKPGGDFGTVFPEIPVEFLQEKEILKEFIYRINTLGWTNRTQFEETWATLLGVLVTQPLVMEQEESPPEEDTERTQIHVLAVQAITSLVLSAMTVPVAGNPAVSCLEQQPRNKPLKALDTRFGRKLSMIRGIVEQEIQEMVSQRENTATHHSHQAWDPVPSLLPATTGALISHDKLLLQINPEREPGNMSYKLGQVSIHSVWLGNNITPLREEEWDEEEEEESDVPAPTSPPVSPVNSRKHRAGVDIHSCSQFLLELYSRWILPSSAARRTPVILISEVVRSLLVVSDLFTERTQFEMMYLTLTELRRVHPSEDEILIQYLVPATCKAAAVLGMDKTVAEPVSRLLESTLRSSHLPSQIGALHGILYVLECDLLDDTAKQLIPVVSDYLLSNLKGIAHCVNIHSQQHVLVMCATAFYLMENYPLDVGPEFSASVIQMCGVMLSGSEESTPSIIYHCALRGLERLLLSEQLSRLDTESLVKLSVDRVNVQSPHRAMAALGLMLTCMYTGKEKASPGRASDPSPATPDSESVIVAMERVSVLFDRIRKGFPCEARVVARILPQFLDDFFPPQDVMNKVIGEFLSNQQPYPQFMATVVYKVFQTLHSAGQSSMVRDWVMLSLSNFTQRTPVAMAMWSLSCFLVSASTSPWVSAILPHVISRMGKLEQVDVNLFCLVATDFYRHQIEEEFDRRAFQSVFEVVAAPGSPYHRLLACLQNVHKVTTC
UniProt Q60631: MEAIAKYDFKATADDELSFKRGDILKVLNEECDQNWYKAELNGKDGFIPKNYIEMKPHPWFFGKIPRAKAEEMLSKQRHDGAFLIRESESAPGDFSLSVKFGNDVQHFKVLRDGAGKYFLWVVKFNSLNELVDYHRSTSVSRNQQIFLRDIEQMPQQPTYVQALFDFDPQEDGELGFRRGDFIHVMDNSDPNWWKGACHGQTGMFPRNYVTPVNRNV

Tests used:
[1] = target: full length mutated HTT with 111Q (endogenous, STHdhQ111/111 cells) (mouse (endogenous knock-in in STHdhQ111/111)) (UniProt P42859); experiment: co-IP; reverse: whole cell extracts of STHdhQ7/7 and STHdhQ111/111 cells; 200 ug extract incubated overnight with anti-Htt antibody and Protein A/G beads; blot with anti-Grb2 (12% SDS-PAGE)
[2] = target: Growth factor receptor protein binding protein 2 (Grb2), endogenous (mouse (endogenous in STHdhQ7/7, STHdhQ111/111 and Neuro2A cells)) (UniProt Q60631); experiment: co-IP; whole cell extracts of STHdhQ7/7 and STHdhQ111/111 cells; 200 ug extract incubated overnight with anti-Grb2 antibody and Protein A/G beads; blot with anti-Htt (6% SDS-PAGE)

binding [1]	binding [2]	Substance
binds	–	Growth factor receptor protein binding protein 2 (Grb2), endogenous (from UniProt Q60631 1-217)
–	binds	full length mutated HTT with 111Q (endogenous, STHdhQ111/111 cells) (from UniProt P42859)

These are yes or no findings as the source states them, for the method shown. In cells and extracts the contact can be indirect. Binding can be weak; no strength is given.
